Laboratory results from PubChem BioAssay (NCATS).
Some of the results follow. Further columns of the screen follow, without active or inactive calls. The list favours compounds with an active or inconclusive main result. Potencies come from curve fits of mixed quality, noted in brackets.

Experiment: A High-Content qHTS Against Drug Library for the Identification of Small Molecules that Inhibit DYT1 Early Onset Primary Dystonia-Associated Cell Pathology (AID 1645839)
Conditions: HEK293 Flp-In EGFP-delE TorsinA, punctate imaging, 48 h; measured here: cell count cytotoxicity
In short: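 In this high-content image screen, delE TorsinA mislocalization in inducible Flp-In 293 cells is scored as %pathology, with cell count serving as the counterscreen. Compound exposure lasts 48 h under tetracycline induction in reduced-serum medium.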

SMILES	AC50
Cc1ncc(CO)c(CO)c1O	5.01 µM [rising, full curve, poor fit]
CN1CCCN=C1/C=C/c1cccs1	39.8 µM [rising, partial curve, poor fit]
O=C(CS)Nc1ccccc1	0.562 µM [falling, full curve, poor fit]
N/C(=N\N=C\c1ccc(Cl)cc1)N/N=C/c1ccc(Cl)cc1	14.1 µM [falling, single point]
CCCCCCCCCCC[C@@H](C[C@@H]1OC(=O)[C@H]1CCCCCC)OC(=O)[C@H](CC(C)C)NC=O	1.58 µM [falling, partial curve, poor fit]
C[C@@H]1CCN(C(=O)[C@H](CCCN=C(N)N)NS(=O)(=O)c2cccc3c2NC[C@H](C)C3)[C@@H](C(=O)O)C1	7.08 µM [rising, partial curve, poor fit]
O=C(O)c1ccc[n+]([O-])c1	22.4 µM [rising, partial curve, poor fit]
Cc1cc(O)c(C)c(C)c1O	35.5 µM [falling, single point]
C[C@@H](CN(C)C)CN1c2ccccc2Sc2ccccc21	22.4 µM [falling, single point]
Clc1ccc2c(c1)CCc1cccnc1C2=C1CCNCC1	20 µM [falling, partial curve, poor fit]
c1ccc(-c2ccc(C(c3ccccc3)n3ccnc3)cc2)cc1 (stereo unspecified)	11.2 µM [falling, partial curve]
